Laboratory results: article PMC9023175
These are yes or no findings as the source states them, for the method shown. In cells and extracts the contact can be indirect. Some results given as binding are weak or reduced against the parent protein; the word gives no strength.

Target: T1, Receptor-interacting protein 3 (rat (endogenous in NRCMs)) (UniProt Q9Z2P5)
T1 sequence: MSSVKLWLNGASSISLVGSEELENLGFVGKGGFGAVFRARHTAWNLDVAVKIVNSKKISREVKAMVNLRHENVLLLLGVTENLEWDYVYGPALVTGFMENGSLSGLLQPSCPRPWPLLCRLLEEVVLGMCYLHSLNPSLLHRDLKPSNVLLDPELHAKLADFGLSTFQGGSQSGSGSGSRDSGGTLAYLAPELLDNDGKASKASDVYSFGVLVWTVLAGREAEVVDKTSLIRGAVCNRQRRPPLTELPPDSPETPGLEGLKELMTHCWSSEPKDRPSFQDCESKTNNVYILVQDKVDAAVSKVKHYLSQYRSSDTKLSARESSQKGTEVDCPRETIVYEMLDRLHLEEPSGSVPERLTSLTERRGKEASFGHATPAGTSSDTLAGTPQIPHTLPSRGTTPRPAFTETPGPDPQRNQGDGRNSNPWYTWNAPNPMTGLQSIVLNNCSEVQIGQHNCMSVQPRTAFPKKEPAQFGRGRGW
Test: co-IP; NRCM lysate (50 mmol/l Tris-HCl pH 7.5, 150 mmol/l NaCl, 0.5% NP-40) incubated with RIP3 antibody and protein-G magnetic beads at 4°C overnight; MLKL detected by Western blot; cells treated with PE (interaction enhanced by PE)

binding: binds
B1: Mixed lineage kinase domain-like protein (protein, UniProt D3ZKP6 1-462)
chain: MDKLGQIIKLGQLIYDQCEKMKYCKRQCRRLRNRVHGLLQPLQRLQAQEKKSLPSDITAALGRFEDVLKEARQQIEKFSQKSNIWKFATVGSDKILFHEVNEKLRDIWEELLLLLQVDQWKSDSEVSQPASWQQEDQQDAEEDGNENMKVILVKLQISMEEIKEALKQCSLKPMQEVPQDFQVKEIPKEDLGYPWTKLKTNKLSTIYRGEYYKSPVTIKVFNNPKAESVGIVRLTFNEEIKTMKKFDSPNILRIFGICIDQTVKPPEFSIVMEYCELGTLRELLDRDKDLTMSVRSLLVLRAARGLYRLHHSGTLHGNISSSSFLVAGGYQVKLAGFELSKTQTSISRATKSTKAERFSSTAYVSPERLQDPFCKYDTKAEIYSFGIVLWEIATGKIPFEGCDSEKIYELVAENKKQEPVGQDCPELLQEIINECRAHEPSNRPSADGRILSLPQMENTRQS
